Laboratory results reported in PubChem BioAssay AID1347076 (National Center for Advancing Translational Sciences (NCATS), 2019).
In all, about 400,000 compounds went through this assay and about 13,000 (3.2%) were called active. Inconclusive results, whose numbers are uncertain, are shown with a selection of clear calls. Calls follow the shape of the dose curve; as a rule, active = well fitted cell-killing curve with a large enough effect; inconclusive = small, poorly fitted or top-dose-only effect, or effect the other way; inactive = flat fitted curve, though single readings scatter. A potency beside an inconclusive call is a rough fit, not a confirmed value.

assay: qHTS assay for MDR1-selective chemotherapeutics: Primary screen using the drug-selected MDR subline cells KB-V1; conditions: KB-V1 MDR cells viability, CellTiter-Glo, 72 h; activity change, negative = cytotoxicity: at 46.1 µM (top of the series); also: nearly all actives have a fitted effect of over 60% in size
Excerpt: A prime difficulty in effectively treating cancer is the development of cellular resistance to multiple structurally unrelated anticancer drugs, a phenomenon known as multidrug resistance (MDR). […] Numerous strategies to overcome P-gp-mediated MDR have been explored, including the design of drugs that evade recognition and efflux, and development of inhibitors to block efflux and restore drug accumulation. […] An alternative approach is to exploit resistance by identifying drugs that target MDR cells over the non-resistant parental cells from which they were selected. […] The development of MDR1-selective agents represents a new strategy for resolving multidrug resistance, as it remains a long-standing clinical challenge for cancer chemotherapy.
Our goal is to identify compounds that selectively kill P-gp-expressing MDR cells. We will identify MDR1-selective compounds by comparing toxicity of compounds in the screening library against parental, drug-naive (KB-3-1) adenocarcinoma cells as well as their drug-selected MDR sub-line (KB-V1). The differential toxicity of compounds against these two cell lines will be used to identify MDR1-selective compounds, whose cytotoxicity is potentiated, rather than diminished, by P-gp expression. This assay will be utilized to conduct a quantitative high-throughput screen (qHTS) in collaboration with the NIH Chemical Genomics Center to identify selective agents, and probe hits arising from the screen will be validated using secondary assays and characterized through a well-established follow-up research program. This screen was run against the entire NCGC library collection of about 400,000 compounds.
NIH Molecular Libraries Probe Production Network [MLPCN]
NIH Chemical Genomics Center [NCGC]
PI: Michael Gottesman, National Cancer Institute, NIH
Briefly, 5 microL of media containing either KB-V1 cells (columns 1-2, 4-48) are dispensed into Greiner white, treated solid-bottom 1536-well assay plates (media-only control is added to column 3). Compounds are then transferred via Kalypsys pin tool equipped with 1536-pin array (10 nL slotted pins, V&P Scientific, San Diego, CA). Following addition of compound, the plates are incubated at 37 degrees C for 72 hours. CellTiter-Glo (2.5 µL/well) is then added, and the plates are read in a ViewLux reader (Perkin-Elmer, clear luminescence filter, 1 second exposure, 1x binning) following a 10 minute incubation. All cells are dispensed in DMEM phenol-red free media containing 10% FBS.
Library plates were screened starting from the lowest and proceeding to the highest concentration. Vehicle-only plates, with DMSO being pin-transferred to columns 5-48, will be inserted uniformly at the beginning and the end of each library in order to monitor and record any shifts in the background, which can be affected by reagent dispensers or loss in enzyme activity over time. Screening data will be corrected, normalized, and concentration-effect relationships will be derived by using publicly-available NCGC, NCATS curve fitting algorithms (http://ncgc.nih.gov/pub/openhts).
% is scaled to controls: 0 for no effect and ±100 for the full control effect; potency is read from the fitted curve at half-maximal effect.

SMILES | Potency | activity change, negative = cytotoxicity
CCNc1nc(NOC)nc(OCC#N)n1 | inconclusive: 0.731 µM [cytotoxic, full curve, poor fit] | 
CCCCCCCCNc1ccccc1S(=O)(=O)NCc1ccccc1 |  | inactive: -15.2%
COc1cccc(NC(=O)c2cc(C(=O)Nc3cccc(OC)c3)n(C)n2)c1 | inconclusive: 20.6 µM [cytotoxic, single point] | 
Cc1cccc(NS(=O)(=O)c2ccc(-c3cnc(C4CC4)o3)cc2)c1 | inconclusive: 23.1 µM [cytotoxic, single point] | 
CCC(C)NC(=O)c1c(-c2cc(Cl)c(OC)c(Cl)c2)noc1C (stereo unspecified) | inconclusive: 20.6 µM [cytotoxic, single point] | 
COc1cc2c(cc1OC)C(C)N(C(=O)Nc1cc(C)cc(C)c1)CC2 (stereo unspecified) | active: 6.51 µM | 
CC1=C(C(=O)N2CCCCCC2)CC(CC(=O)NCCN2CCOCC2)C(=O)N1CCCN1CCCC1=O (stereo unspecified) | inconclusive: 20.9 µM [cytotoxic, partial curve, poor fit] | 
NC(=S)N=Nc1c(O)n(CCCl)c2ccc(Br)cc12 | inconclusive: 25.9 µM [cytotoxic, single point] | 
C/C(=N\NC(N)=O)c1cc(Cl)cc(Cl)c1O |  | inactive: -28.4%
CCN1CNC(=S)N(c2cc(C)ccc2C)C1 |  | inactive: -1.95%
O=C(NCCC1=CCCCC1)C(=O)NCC1OCCCN1S(=O)(=O)c1ccccc1 (stereo unspecified) | active: 9.2 µM | 
C[C@H](O)[C@@H]1CN2CCc3c([nH]c4ccccc34)[C@@H]2C[C@@H]1N(C)C(=S)Nc1ccc(C#N)cc1 | inconclusive: 2.59 µM [cytotoxic, partial curve, poor fit] | 
Fc1ccccc1/C=N/n1c(-c2cccnc2)n[nH]c1=S | inconclusive: 0.731 µM [rising, full curve] | 
COc1ccccc1OCCNc1nc2c(c(=O)n(C)c(=O)n2C)n1C | inconclusive: 29.1 µM [cytotoxic, single point] | 
CCOCCCNC(=O)c1ccc2c(c1)ncn2-c1cccc(C)c1 | inconclusive: 23.1 µM [cytotoxic, partial curve] | 
OC(CSc1ccccc1)CN1CCN(c2ccc(Cl)cc2)CC1 (stereo unspecified) |  | inactive: -9.66%
Cc1ccc(C)c(NC(=O)C(Sc2nncn2C)c2ccccc2)c1 (stereo unspecified) | active: 14.6 µM | 
CN1CCc2c(n(CC(O)CN3CCN(CCO)CC3)c3ccccc23)C1=O (stereo unspecified) |  | inactive: 4.39%
NC(=O)N/N=C/c1cccc(C(F)(F)F)c1 | inconclusive: 32.6 µM [cytotoxic, single point] | 
C=CCc1cc(OC)ccc1OCCCCn1cncn1 |  | inactive: -3.36%
O=C(Nc1ccc(-c2nnc(-c3ccccc3)o2)cc1)C1CCCO1 (stereo unspecified) | active: 8.2 µM | 
O=C(COc1ccc2c(-c3ccccc3)cc(=O)oc2c1)NC(Cc1c[nH]c2ccccc12)C(=O)O (stereo unspecified) | inconclusive: 29.1 µM [rising, single point] | 
O=C(CSc1nnnn1C1CCCC1)N1CCCc2ccccc21 | inconclusive: 8.2 µM [cytotoxic, partial curve] | 

Taken from above, 2 compounds:
SMILES | Potency | activity change, negative = cytotoxicity
O=C(COc1ccc2c(-c3ccccc3)cc(=O)oc2c1)NC(Cc1c[nH]c2ccccc12)C(=O)O (stereo unspecified) | inconclusive: 29.1 µM [rising, single point] | 
O=C(CSc1nnnn1C1CCCC1)N1CCCc2ccccc21 | inconclusive: 8.2 µM [cytotoxic, partial curve] | 

More records follow:

SMILES | Potency | activity change, negative = cytotoxicity
CCN(CC)c1ccc(-n2c(C)c(C(C)=O)c(C(C)=O)c2C)cc1 | active: 18.4 µM | 
Cn1c(C(=O)N2CCCc3ccccc32)cc2sccc21 | active: 14.6 µM | 
CCOC(=O)c1c(NC(=O)COc2ccccc2F)sc2c1CC(C)(C)NC2(C)C | inconclusive: 29.1 µM [cytotoxic, single point] | 
CC(=O)c1ccc(NC(=O)C[n+]2cccc(C)c2)cc1 | inconclusive: 18.4 µM [rising, single point] | 
COC(=O)CC1COc2ccccc2N1S(=O)(=O)c1ccc(OC)cc1 (stereo unspecified) | inconclusive: 18.4 µM [cytotoxic, single point] | 
CC(=O)Nc1cccc(NC(C)=O)n1 | inconclusive: 29.1 µM [rising, single point] | 
O=C(/C=C/c1ccccc1)NC1CCSC1=O (stereo unspecified) | inconclusive: 29.1 µM [rising, single point] | 
CCOC(=O)c1scc(-c2ccccc2)c1S(=O)(=O)Nc1ccc(N(C)C)cc1 |  | inactive: -18.9%
CCOC(=O)c1ccc(NC(=S)N2CCC(C(N)=O)(N3CCCCC3)CC2)cc1 | inconclusive: 16.4 µM [cytotoxic, partial curve, poor fit] | 
Cc1cc(C)c(S(=O)(=O)c2ccccc2C)c(OCC(C)(C)C)n1 | inconclusive: 32.6 µM [cytotoxic, single point] | 
CC(C)Cn1c(N)c(C(=O)CSc2ccc3c(c2)OCCO3)c(=O)n(C)c1=O | inconclusive: 2.31 µM [cytotoxic, partial curve, poor fit] | 
CCCCC(=O)Nc1ccc(Cl)cc1F | inconclusive: 13 µM [rising, partial curve, poor fit] | 
COc1ccc(-n2c(-c3ccc(C)cc3)n[nH]c2=S)cc1 | inconclusive: 29.1 µM [cytotoxic, partial curve, poor fit] | 
CCOC(=O)Nc1nc(-c2ccccc2)c(C(=O)c2ccc(Cl)cc2)s1 | active: 1.3 µM | 
CCOC(=O)[C@]12CCC=C1N(Cc1ccc3c(c1)OCO3)C(=O)[C@H](CC(=O)N1CCOCC1)C2 | inconclusive: 18.4 µM [cytotoxic, partial curve, poor fit] | 
CCOC(=O)C1CCN(C(=O)c2sc3nc(-c4ccc(F)cc4)cn3c2C)CC1 | active: 23.1 µM | 
Cc1ccc(C(=O)N(CN2CCCC2=O)c2ccc(F)cc2)cc1 | inconclusive: 16.4 µM [cytotoxic, partial curve] | 
Oc1[nH]c2ccccc2c1N=Nc1c(F)c(F)c(F)c(F)c1F |  | inactive: -0.892%
C=CCc1cc(OC)ccc1OCCN1CC(C)OC(C)C1 (stereo unspecified) |  | inactive: 8.22%
OC(COc1ccc2c(c1)OCO2)CN1CCc2ccccc2C1 (stereo unspecified) | inconclusive: 16.4 µM [cytotoxic, partial curve] | 
COc1ccccc1NC(=S)NN=C(C)c1ccccn1 | inconclusive: 0.0116 µM [cytotoxic, full curve, poor fit] | 
O=C(Nc1cccc2c1CCCC2)c1cc([N+](=O)[O-])ccc1Cl | inconclusive: 29.1 µM [cytotoxic, single point] | 
CCCCSc1cc(=O)n(-c2ccccc2)nc1C(=O)OCC | inconclusive: 13 µM [cytotoxic, partial curve] | 
